# Assay results: the supplement of paper PMC8728848
# The list shows a part of the results.
# B1: Clec18Av1 (Homo sapiens), A5D8T8 (protein)
# chain: MLHPETSPGRGHLLAVLLALLGTAWAEVWPPQLQEQAPMAGALNRKESFLLLSLHNRLRSWVQPPAADMRRLDWSDSLAQLAQARAALCGTPTPSLASGLWRTLQVGWNMQLLPAGLVSFVEVVSLWFAEGQRYSHAAGECARNATCTHYTQLVWATSSQLGCGRHLCSAGQAAIEAFVCAYSPRGNWEVNGKTIVPYKKGAWCSLCTASVSGCFKAWDHAGGLCEVPRNPCRMSCQNHGRLNISTCHCHCPPGYTGRYCQVRCSLQCVHGRFREEECSCVCDIGYGGAQCATKVHFPFHTCDLRIDGDCFMVSSEADTYYRARMKCQRKGGVLAQIKSQKVQDILAFYLGRLETTNEVIDSDFETRNFWIGLTYKTAKDSFRWATGEHQAFTSFAFGQPDNHGFGNCVELQASAAFNWNDQRCKTRNRYICQFAQEHISRWGPGS
# Columns and labels:
# Assay in all cases: glycan array binding signal (z-score within array); higher = stronger binding
# Details in all cases: glycan notation: IUPAC condensed, linker removed
# [1] = target: Fuc(a1-3)[Gal(b1-4)]GlcNAc(b1-3)Gal(b1-4)[Fuc(a1-3)]GlcNAc
# In short: (§1)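 Arrays were curated from the Consortium for Functional Glycomics database, 3228 in total, and kept only where the protein sequence was available. Binding is expressed as a within-array Z-score. This score was averaged across arrays of the same protein sequence at different concentrations or buffers and across linkers, and negative values can be read as non-binding.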
# [2] = target: Fuc(a1-3)[Gal(b1-4)]GlcNAc(b1-3)Gal(b1-4)[Fuc(a1-3)]GlcNAc(b1-3)Gal(b1-4)[Fuc(a1-3)]GlcNAc
# In short: as §1
# [3] = target: Fuc(a1-3)[Gal(b1-4)]GlcNAc(b1-3)GalNAc
# In short: as §1
# [4] = target: Fuc(a1-3)[Gal(b1-4)]GlcNAc(b1-6)GalNAc
# In short: as §1
# [5] = target: Fuc(a1-3)[Gal(b1-4)]GlcNAc(b1-6)[Gal(b1-3)GlcNAc(b1-3)]Gal(b1-4)Glc
# In short: as §1
# [6] = target: Fuc(a1-3)[Gal(b1-4)]GlcNAc6S
# In short: as §1
# [7] = target: Fuc(a1-3)[Gal3S(b1-4)]Glc
# In short: as §1
# [8] = target: Fuc(a1-3)[Gal3S(b1-4)]GlcNAc
# In short: as §1
# [9] = target: Fuc(a1-3)[Gal3S(b1-4)]GlcNAc6S
# In short: as §1
# [10] = target: Fuc(a1-3)[GalNAc(b1-4)]GlcNAc
# In short: as §1
# [11] = target: Fuc(a1-3)[GalNAc(b1-4)]GlcNAc6S
# In short: as §1
# [12] = target: Fuc(a1-4)GlcNAc
# In short: as §1
# [13] = target: Fuc(b1-3)GlcNAc
# In short: as §1
# [14] = target: Gal(a1-2)Gal
# In short: as §1
# [15] = target: Gal(a1-3)Gal
# In short: as §1
# [16] = target: Gal(a1-3)Gal(b1-3)GlcNAc
# In short: as §1
# [17] = target: Gal(a1-3)Gal(b1-3)GlcNAc(b1-2)Man
# In short: as §1
# [18] = target: Gal(a1-3)Gal(b1-3)GlcNAc(b1-2)Man(a1-3)[Gal(a1-3)Gal(b1-3)GlcNAc(b1-2)Man(a1-6)]Man(b1-4)GlcNAc(b1-4)GlcNAc
# In short: as §1
# [19] = target: Gal(a1-3)Gal(b1-3)GlcNAc(b1-3)GalNAc
# In short: as §1
# [20] = target: Gal(a1-3)Gal(b1-3)GlcNAc(b1-6)GalNAc
# In short: as §1
# [21] = target: Gal(a1-3)Gal(b1-3)[Fuc(a1-4)]GlcNAc(b1-2)Man(a1-3)[Gal(a1-3)Gal(b1-3)[Fuc(a1-4)]GlcNAc(b1-2)Man(a1-6)]Man(b1-4)GlcNAc(b1-4)GlcNAc
# In short: as §1
# [22] = target: Gal(a1-3)Gal(b1-4)Glc
# In short: as §1
# [23] = target: Gal(a1-3)Gal(b1-4)GlcNAc
# In short: as §1
# [24] = target: Gal(a1-3)Gal(b1-4)GlcNAc(b1-2)Man
# In short: as §1
# [25] = target: Gal(a1-3)Gal(b1-4)GlcNAc(b1-2)Man(a1-3)[Gal(a1-3)Gal(b1-4)GlcNAc(b1-2)Man(a1-6)]Man(b1-4)GlcNAc(b1-4)GlcNAc
# In short: as §1
# [26] = target: Gal(a1-3)Gal(b1-4)GlcNAc(b1-3)GalNAc
# In short: as §1
# [27] = target: Gal(a1-3)Gal(b1-4)GlcNAc(b1-6)GalNAc
# In short: as §1
# [28] = target: Gal(a1-3)Gal(b1-4)[Fuc(a1-3)]GlcNAc
# In short: as §1
# [29] = target: Gal(a1-3)Gal(b1-4)[Fuc(a1-3)]GlcNAc(b1-2)Man(a1-3)[Gal(a1-3)Gal(b1-4)[Fuc(a1-3)]GlcNAc(b1-2)Man(a1-6)]Man(b1-4)GlcNAc(b1-4)GlcNAc
# In short: as §1
# [30] = target: Gal(a1-3)GalNAc
# In short: as §1
# [31] = target: Gal(a1-3)[Gal(a1-4)]Gal(b1-4)GlcNAc
# In short: as §1
# [32] = target: Gal(a1-4)Gal(b1-3)GlcNAc(b1-2)Man(a1-3)[Gal(a1-4)Gal(b1-3)GlcNAc(b1-2)Man(a1-6)]Man(b1-4)GlcNAc(b1-4)GlcNAc
# In short: as §1
# [33] = target: Gal(a1-4)Gal(b1-4)Glc
# In short: as §1
# [34] = target: Gal(a1-4)Gal(b1-4)GlcNAc
# In short: as §1
# [35] = target: Gal(a1-4)Gal(b1-4)GlcNAc(b1-2)Man(a1-3)[Gal(a1-4)Gal(b1-4)GlcNAc(b1-2)Man(a1-6)]Man(b1-4)GlcNAc(b1-4)GlcNAc
# In short: as §1
# [36] = target: Gal(a1-4)Gal(b1-4)GlcNAc(b1-3)Gal(b1-4)Glc
# In short: as §1
# [37] = target: Gal(a1-4)GlcNAc
# In short: as §1
# [38] = target: Gal(a1-6)Glc
# In short: as §1
binder,measurement,setting,value
B1,glycan array binding signal (z-score),[1],0.079
same,glycan array binding signal (z-score),[2],-0.748
same,glycan array binding signal (z-score),[3],1.02
same,glycan array binding signal (z-score),[4],-0.354
same,glycan array binding signal (z-score),[5],1.82
same,glycan array binding signal (z-score),[6],1.02
same,glycan array binding signal (z-score),[7],-0.1
same,glycan array binding signal (z-score),[8],-0.843
same,glycan array binding signal (z-score),[9],-0.637
same,glycan array binding signal (z-score),[10],1.11
same,glycan array binding signal (z-score),[11],1.55
same,glycan array binding signal (z-score),[12],-0.636
same,glycan array binding signal (z-score),[13],-0.849
same,glycan array binding signal (z-score),[14],-0.398
same,glycan array binding signal (z-score),[15],-0.255
same,glycan array binding signal (z-score),[16],0.376
same,glycan array binding signal (z-score),[17],3.22
same,glycan array binding signal (z-score),[18],0.008
same,glycan array binding signal (z-score),[19],2.38
same,glycan array binding signal (z-score),[20],0.002
same,glycan array binding signal (z-score),[21],0.72
same,glycan array binding signal (z-score),[22],0.174
same,glycan array binding signal (z-score),[23],0.888
same,glycan array binding signal (z-score),[24],0.623
same,glycan array binding signal (z-score),[25],0.559
same,glycan array binding signal (z-score),[26],0.25
same,glycan array binding signal (z-score),[27],-0.214
same,glycan array binding signal (z-score),[28],2.81
same,glycan array binding signal (z-score),[29],-0.035
same,glycan array binding signal (z-score),[30],-0.534
same,glycan array binding signal (z-score),[31],0.638
same,glycan array binding signal (z-score),[32],1.03
same,glycan array binding signal (z-score),[33],-0.154
same,glycan array binding signal (z-score),[34],1.52
same,glycan array binding signal (z-score),[35],0.478
same,glycan array binding signal (z-score),[36],-0.559
same,glycan array binding signal (z-score),[37],-0.777
same,glycan array binding signal (z-score),[38],-0.747
